These results are taken from publication doi:10.1101/2024.09.14.613007.

By UniProt entry, the sequences of proteins in these tests, tags left out. Where a name states a change or a piece, a line headed by the entry shows the natural chain unless it says otherwise.
UniProt P38936: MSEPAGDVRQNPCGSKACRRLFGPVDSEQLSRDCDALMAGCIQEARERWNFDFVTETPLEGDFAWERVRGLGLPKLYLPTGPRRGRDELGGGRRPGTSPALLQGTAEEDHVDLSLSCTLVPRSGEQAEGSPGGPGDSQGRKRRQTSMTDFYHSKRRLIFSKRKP
UniProt P14635: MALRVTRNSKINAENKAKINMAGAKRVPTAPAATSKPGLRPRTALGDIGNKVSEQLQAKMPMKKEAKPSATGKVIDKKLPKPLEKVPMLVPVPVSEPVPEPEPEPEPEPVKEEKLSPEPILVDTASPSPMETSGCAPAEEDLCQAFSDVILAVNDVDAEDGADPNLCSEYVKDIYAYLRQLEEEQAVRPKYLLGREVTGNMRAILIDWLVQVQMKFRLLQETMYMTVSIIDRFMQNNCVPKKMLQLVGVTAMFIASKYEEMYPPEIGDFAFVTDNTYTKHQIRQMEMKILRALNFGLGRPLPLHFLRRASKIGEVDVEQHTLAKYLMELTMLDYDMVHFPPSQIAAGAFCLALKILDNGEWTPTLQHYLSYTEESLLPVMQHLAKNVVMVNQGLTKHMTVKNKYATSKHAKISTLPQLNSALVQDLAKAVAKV
UniProt P24385: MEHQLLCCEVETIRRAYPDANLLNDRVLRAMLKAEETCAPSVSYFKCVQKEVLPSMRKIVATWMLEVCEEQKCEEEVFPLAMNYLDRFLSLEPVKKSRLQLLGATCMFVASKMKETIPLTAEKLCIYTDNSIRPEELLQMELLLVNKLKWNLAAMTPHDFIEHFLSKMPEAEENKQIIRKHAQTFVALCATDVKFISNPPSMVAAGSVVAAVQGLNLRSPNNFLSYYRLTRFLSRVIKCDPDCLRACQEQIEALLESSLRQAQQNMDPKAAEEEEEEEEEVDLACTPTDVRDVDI

The target in experiment [1] is p21-GFP C41S (homozygous CRISPR-Cas9 knock-in in RPE-1 p21-GFP cells, clone #1) (human (endogenous in RPE-1)) (UniProt P38936). As to the kind of experiment: pull-down.
Experiment [2] concerns the target p21-GFP WT (endogenous p21 tagged with GFP in RPE-1 cells) (human (endogenous in RPE-1)) (UniProt P38936). As to the kind of experiment: pull-down.

Results are given in words; binding and its absence hold for the method and conditions named. Binding seen in cells or lysates may run through a third protein. Some binding calls cover weakened binding; strength is not graded here.

Consider cyclin B1 (from UniProt P14635 1-433), for which the binding entry in experiment [1] and in experiment [2] was “binds” in each case.
For cyclin D1 (from UniProt P24385 1-295), the binding result in experiment [1] and in experiment [2] was “binds” each time.
